Assays:
[1] = Carrier mobility, bottom gate/top contact element (Example 4); details: bottom gate/top contact FET on octyltrichlorosilane-treated SiO2 (370 nm), W=5 mm, L=80 μm
[2] = Variation of element (carrier mobility difference between first and second element); details: difference in carrier mobility between first and second element
[3] = Carrier mobility of organic transistor element, semiconductor layer formed from compound alone (Example 2, bottom gate/bottom contact); details: compound alone cast from toluene; bottom gate/bottom contact FET; −80 V source-drain, gate 20 V to −100 V; normal pressure/nitrogen
[4] = Heat resistance of element (decrease in mobility after heating); details: element heated 30 minutes at 150° C. on a hot plate
[5] = Carrier mobility, semiconductor layer formed from compound and PαMS binder (Example 3); details: compound 1 mg with 1 mg PαMS binder in toluene, bottom gate/bottom contact FET
[6] = Threshold voltage shift after repeated driving (Example 2 elements); details: compound alone; driven 100 times, gate +20 V to −100 V; |Vafter−Vbefore|
[7] = Threshold voltage shift after repeated driving, compound and PαMS binder (Example 3); details: compound with PαMS binder; same criteria as Example 2
[8] = listed as comparative compound 1

Compound	Carrier mobility [1]	Carrier mobility [1, 8]	Variation [2]	Carrier mobility [3]	Heat resistance [4]	Carrier mobility [5]	Carrier mobility [5, 8]	Threshold voltage shift after repeated driving [6]	Threshold voltage shift after repeated driving [7]
CCc1cc2sc3cc4sc5cc(CC)sc5c4cc3c2s1 [Comparative compound 1, reference compound]	8.5 × 10^−5 cm^2/Vs	low carrier mobility	C (The difference in carrier mobility was equal to or greater than 50%.)	5.4 × 10^−4 cm^2/Vs	C (The decrease in mobility was equal to or greater than 30%.)	2.2 × 10^−4 cm^2/Vs	low carrier mobility	C (|Vafter−Vbefore|>10 V)	C (|Vafter−Vbefore|>10 V)
CCCCCCCCc1cc2sc3cc4sc5cc(CCCCCCCC)sc5c4cc3c2s1 [Compound 1]	5.5 × 10^−2 cm^2/Vs		B (The difference in carrier mobility was equal to or greater than 20% and less than 50%.)	5.0 × 10^−2 cm^2/Vs	B (The decrease in mobility was equal to or greater than 10% and less than 30%.)	8.8 × 10^−2 cm^2/Vs			
CCCCCCCCc1csc2c1sc1cc3sc4c(CCCCCCCC)csc4c3cc12 [Compound 2]			B (The difference in carrier mobility was equal to or greater than 20% and less than 50%.)	8.1 × 10^−3 cm^2/Vs	B (The decrease in mobility was equal to or greater than 10% and less than 30%.)	9.1 × 10^−3 cm^2/Vs		A (|Vafter−Vbefore|≦5 V)	A (|Vafter−Vbefore|≦5 V)
CCCCCCCCCCCCc1cc2sc3cc4sc5cc(CCCCCCCCCCCC)sc5c4cc3c2s1 [Compound 3]	3.6 × 10^−2 cm^2/Vs		A (The difference in carrier mobility was less than 20%.)	7.4 × 10^−2 cm^2/Vs	A (The decrease in mobility was less than 10%.)	3.3 × 10^−2 cm^2/Vs		A (|Vafter−Vbefore|≦5 V)	A (|Vafter−Vbefore|≦5 V)
CCCCCCCCc1ccc(-c2cc3sc4cc5sc6cc(-c7ccc(CCCCCCCC)s7)sc6c5cc4c3s2)s1 [Compound 4]	8.5 × 10^−2 cm^2/Vs		B (The difference in carrier mobility was equal to or greater than 20% and less than 50%.)	4.9 × 10^−2 cm^2/Vs	A (The decrease in mobility was less than 10%.)	7.5 × 10^−2 cm^2/Vs		A (|Vafter−Vbefore|≦5 V)	A (|Vafter−Vbefore|≦5 V)
CCCCCCCCc1csc(-c2cc3sc4cc5sc6cc(-c7cc(CCCCCCCC)cs7)sc6c5cc4c3s2)c1 [Compound 5]			B (The difference in carrier mobility was equal to or greater than 20% and less than 50%.)	7.3 × 10^−2 cm^2/Vs	A (The decrease in mobility was less than 10%.)	9.4 × 10^−2 cm^2/Vs		A (|Vafter−Vbefore|≦5 V)	A (|Vafter−Vbefore|≦5 V)
CCCCCCCCc1ccc(-c2cc3sc4cc5sc6cc(-c7ccc(CCCCCCCC)o7)sc6c5cc4c3s2)o1 [Compound 8]			B (The difference in carrier mobility was equal to or greater than 20% and less than 50%.)	1.5 × 10^−2 cm^2/Vs	A (The decrease in mobility was less than 10%.)			A (|Vafter−Vbefore|≦5 V)	
CCCCCCCCc1ccc(-c2cc3sc4cc5sc6cc(-c7ccc(CCCCCCCC)cc7)sc6c5cc4c3s2)cc1 [Compound 9]	8.8 × 10^−2 cm^2/Vs		B (The difference in carrier mobility was equal to or greater than 20% and less than 50%.)	3.4 × 10^−2 cm^2/Vs	A (The decrease in mobility was less than 10%.)			B (5 V<|Vafter−Vbefore|≦10 V)	
CCCCCCCCOc1ccc(-c2cc3sc4cc5sc6cc(-c7ccc(OCCCCCCCC)cc7)sc6c5cc4c3s2)cc1 [Compound 10]			B (The difference in carrier mobility was equal to or greater than 20% and less than 50%.)	8.7 × 10^−3 cm^2/Vs	B (The decrease in mobility was equal to or greater than 10% and less than 30%.)			A (|Vafter−Vbefore|≦5 V)	
CCCCCCCCc1cc2sc3cc4sc5cc(CCCCCCCC)oc5c4cc3c2o1 [Compound 21]			B (The difference in carrier mobility was equal to or greater than 20% and less than 50%.)	5.0 × 10^−2 cm^2/Vs	B (The decrease in mobility was equal to or greater than 10% and less than 30%.)			A (|Vafter−Vbefore|≦5 V)	
CC(C)CCCC(C)CCc1cc2sc3cc4sc5cc(CCC(C)CCCC(C)C)sc5c4cc3c2s1 (stereo not drawn) [Compound 31]			A (The difference in carrier mobility was less than 20%.)	5.8 × 10^−2 cm^2/Vs	B (The decrease in mobility was equal to or greater than 10% and less than 30%.)			A (|Vafter−Vbefore|≦5 V)	
CC(C)CCCC(C)CCc1ccc(-c2cc3sc4cc5sc6cc(-c7ccc(CCC(C)CCCC(C)C)s7)sc6c5cc4c3s2)s1 (stereo not drawn) [Compound 33]			A (The difference in carrier mobility was less than 20%.)	8.0 × 10^−2 cm^2/Vs	A (The decrease in mobility was less than 10%.)			A (|Vafter−Vbefore|≦5 V)	
CCCCCCCCCCCCCCCCCCCCCCc1cc2sc3cc4sc5cc(CCCCCCCCCCCCCCCCCCCCCC)sc5c4cc3c2s1 [Compound 41]			B (The difference in carrier mobility was equal to or greater than 20% and less than 50%.)	7.4 × 10^−3 cm^2/Vs	B (The decrease in mobility was equal to or greater than 10% and less than 30%.)			A (|Vafter−Vbefore|≦5 V)	
